Results on 42 sequences are retold here after article PMC7819943, “Rice protein-binding microarrays: a tool to detect cis-acting elements near promoter regions in rice”.

Some of the results follow.

The target of this test is T1, OsSMF1 (Oryza sativa, UniProt Q6ZLB0 1-436).
T1 sequence: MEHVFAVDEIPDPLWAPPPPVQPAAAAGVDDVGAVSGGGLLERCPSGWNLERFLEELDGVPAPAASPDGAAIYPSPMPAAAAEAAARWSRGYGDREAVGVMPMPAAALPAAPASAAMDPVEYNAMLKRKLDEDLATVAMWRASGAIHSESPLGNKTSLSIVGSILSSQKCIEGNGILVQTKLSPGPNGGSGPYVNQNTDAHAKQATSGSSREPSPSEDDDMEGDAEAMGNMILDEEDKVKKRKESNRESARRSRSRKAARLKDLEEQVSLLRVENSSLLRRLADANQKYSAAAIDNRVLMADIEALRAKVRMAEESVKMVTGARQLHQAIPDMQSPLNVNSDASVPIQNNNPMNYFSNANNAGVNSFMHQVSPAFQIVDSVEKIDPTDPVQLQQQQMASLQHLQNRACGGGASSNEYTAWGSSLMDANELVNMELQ
As to the kind of experiment: protein-binding microarray (RPBM); PBS, 2% BSA, 51.3 ng/ul salmon testes DNA, 50 uM zinc acetate, 200 nM TF, 25 C, 1 h; high values mean tight binding. To be noted: protein: recombinant; tags: N-terminal polyhistidine and DsRed monomer fusion (pET32a); chain copies: 2; label: CyDye5-dUTP incorporated in the synthesized complementary strand; 3' TTTTT single-stranded linker to array surface; dsDNA, one strand shown. In outline: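 The binding signal for each feature is its fluorescence intensity in arbitrary units. An Axon 4000B scanner was used to read a custom Agilent array that had been made double-stranded with Cy5-dUTP primer extension, blocked with 2% BSA, incubated at 25 °C for 1 h with 200 nM protein in PBS, 2% BSA, salmon testes DNA and 50 µM zinc acetate, and washed. The protein was an N-terminal polyhistidine–DsRed transcription factor fusion from E. coli BL21-CodonPlus, purified on Ni–NTA.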
“TATCTTGCAATTAAGTTGCAACCACGCCATCCTGCCTGAGCGGAGTCACCTAGTGCAG”: the binding signal was 4550 fluorescence intensity (a.u.).
For “ACGGGCACGACGACCGTCGTGCTCACGGCCGCCGACGTCGCGGAGTCACCTAGTGCAG”, the binding signal is 4140 fluorescence intensity (a.u.).
Turning to “AAAGATGCGGGTCAATGCGACAGCGCCATCCGATCTCCCCCGGAGTCACCTAGTGCAG”, the binding signal is 25800 fluorescence intensity (a.u.).
As for “GGAACTATGCGACTCATAATGGAATAAGAAATCCTGGGTTCGGAGTCACCTAGTGCAG”, the binding signal is 34200 fluorescence intensity (a.u.).
Consider “GGAGTGGGCCCCACATGTCATCGCGAGGCATCCTCCGTGGCGGAGTCACCTAGTGCAG”, for which the binding signal is 3460 fluorescence intensity (a.u.).
On to “ATTACTCTACCATATCGACTGCGTCATCGCTGATCCATAGCGGAGTCACCTAGTGCAG”, for which the binding signal was 8920 fluorescence intensity (a.u.).
Turning to “CTGTACATATGTCTGTGTGTGTGTCAGTGTGAGCGTTAGCCGGAGTCACCTAGTGCAG”, the binding signal was 3490 fluorescence intensity (a.u.).
For the sequence “TCGTAAGTAAATGTCGGATTTAATTCCATTATGTTAAAGACGGAGTCACCTAGTGCAG”, the binding signal was 3410 fluorescence intensity (a.u.).
As for “ATATTCTTATACGTGCACTATTTCTATCCAACGTGGAATCCGGAGTCACCTAGTGCAG”, the binding signal was 5820 fluorescence intensity (a.u.).
For the sequence “TACCATTTCTTGACAAGTCAGATAGAAACCTGGATTCATTCGGAGTCACCTAGTGCAG”, the binding signal was 3640 fluorescence intensity (a.u.).
Take “CCGTGCACGCTCCCAGATCATGCCACGTGGGTGGGCCCCACGGAGTCACCTAGTGCAG”: the binding signal is 16200 fluorescence intensity (a.u.).
Regarding “TTTAGGCAAGTGGACAACAATAACACATCATTAATCTCCACGGAGTCACCTAGTGCAG”, the binding signal is 4500 fluorescence intensity (a.u.).
The same measure for “AGTGGCGTAGTATTTGGATCCGCCGCCTCCACTTCACCGACGGAGTCACCTAGTGCAG”: 3500 fluorescence intensity (a.u.).
As for “CCCTGGCGGTGGGCGGTGGGCAGCTGAGGTGGAAGCAGAGCGGAGTCACCTAGTGCAG”, the binding signal is 5800 fluorescence intensity (a.u.).
For “CGCGCCAGATCAGATCCACCGCCCTCTCTCTCTCTCTCTCCGGAGTCACCTAGTGCAG”, the binding signal was 5670 fluorescence intensity (a.u.).
As for “GCCACTTGCCCAGGTCACGCACACATTATTGAGCGAGCGACGGAGTCACCTAGTGCAG”, the binding signal was 4590 fluorescence intensity (a.u.).
As to “TTCTTCGAGGACCACATGCGTGAGTGGATGACGGAGTTCCCGGAGTCACCTAGTGCAG”, the binding signal was 3950 fluorescence intensity (a.u.).
In the case of “GTGCCTGACAATCCTACAGGTGAAATCAACCCCTTTCATCCGGAGTCACCTAGTGCAG” it was 40800 fluorescence intensity (a.u.); in that of “ATAACACGTAGAAATACAGTTATCATGTCACCAAACATATCGGAGTCACCTAGTGCAG”, 4120 fluorescence intensity (a.u.).
With “GCGCGCGGCGAGTGACGCGGCGCGGCGTGTTCGTGCGTGCCGGAGTCACCTAGTGCAG”, the binding signal is 6300 fluorescence intensity (a.u.).
For the sequence “CCTCTCCACCGCGCTTTCCGCCAGCGCGATGACTCTGCGCCGGAGTCACCTAGTGCAG”, the binding signal was 5310 fluorescence intensity (a.u.).
For the sequence “GCCGCCCACCCGCGCCGTCCGCTGTCCAGGAAGGAGAGAGCGGAGTCACCTAGTGCAG”, the binding signal was 3480 fluorescence intensity (a.u.).
As to “CTAGTCGGTATAGATGTTGATGTCTCCCCGACACACCTCCCGGAGTCACCTAGTGCAG”, the binding signal is 20900 fluorescence intensity (a.u.).
For the sequence “GAGCTCCCTGACCGCAGCGGTGATGTGAGCACTGGGCCATCGGAGTCACCTAGTGCAG”, the binding signal is 3160 fluorescence intensity (a.u.).
For “TGATCCTCGCTACGGCCGACTACGACGACGACAGGTTGCGCGGAGTCACCTAGTGCAG”, the binding signal is 3760 fluorescence intensity (a.u.).
In the case of “CTTGGCAAGGAAAGGCGTCAGCTCGATGTCGTACGTCGGCCGGAGTCACCTAGTGCAG”, the binding signal is 3940 fluorescence intensity (a.u.).
As to “TCTTGTCGCCATCGCATCGCCATCGCGTCACCATCTCGTCCGGAGTCACCTAGTGCAG”, the binding signal was 28400 fluorescence intensity (a.u.).
“GCGCCGCCTCCCAATCCGGGAGGATCCCTCCGGACCCGCCCGGAGTCACCTAGTGCAG”: the binding signal is 5540 fluorescence intensity (a.u.).
With “AATTGATACTTGTGAGGATGACATGTAAGACTATCTGAGTCGGAGTCACCTAGTGCAG”, the binding signal is 4590 fluorescence intensity (a.u.).
In the case of “GTCCCACGCTGACTCAGCCGTCACGTAGGATAAAACCGGACGGAGTCACCTAGTGCAG” it was 14300 fluorescence intensity (a.u.); in that of “CGGAGGGAGTATAAAAGAACAATACTTCTATAAATTTTGTCGGAGTCACCTAGTGCAG”, 40300 fluorescence intensity (a.u.); in that of “CGAAACCACAAACGTGCCCTCCATTTACTAGCTGATTGGGCGGAGTCACCTAGTGCAG”, 3660 fluorescence intensity (a.u.).
In the case of “AATTAAGATGTTGTCACATCAATGTCCTAAGTGACAAATACGGAGTCACCTAGTGCAG”, the binding signal was 4560 fluorescence intensity (a.u.).
The same measure for “AAAGGAAAGGCGCGTCACGGCGTCAGACGAGACGACGACGCGGAGTCACCTAGTGCAG”: 3340 fluorescence intensity (a.u.).
In the case of “CCAGCAGCCCCTCTCTCATCCATGGTAGTGCTCTGTCATGCGGAGTCACCTAGTGCAG”, the binding signal is 3400 fluorescence intensity (a.u.).
With “GGATCAAATTGCCACATATGCGCCACGTTAATGCCACATCCGGAGTCACCTAGTGCAG”, the binding signal was 8660 fluorescence intensity (a.u.).
Regarding “GAATGAATTGAAACAGACAATGCACACGCTTAGTCCATGACGGAGTCACCTAGTGCAG”, the binding signal is 28800 fluorescence intensity (a.u.).
Turning to “ACTTGATGTGATATATCCTAGTCCAACGAATCTGGACAGCCGGAGTCACCTAGTGCAG”, the binding signal is 3260 fluorescence intensity (a.u.).
On to “ATCCAAATGTTGAAACAGTATGAATTACAGTCATAGTACGCGGAGTCACCTAGTGCAG”, for which the binding signal was 3310 fluorescence intensity (a.u.).
“AGAAGCTTTCCGAGGGTGGGCCCGCGTCGTCAGTGTGTGACGGAGTCACCTAGTGCAG”: the binding signal was 4060 fluorescence intensity (a.u.).
As to “CCCCTCCTGGGACTACTCGGCCACGACGGCTTCCACCCCGCGGAGTCACCTAGTGCAG”, the binding signal is 3370 fluorescence intensity (a.u.).
In the case of “GTTAGTATACTATTTATGAGTCAGCTCGAGCATGTGTCAACGGAGTCACCTAGTGCAG”, the binding signal was 11800 fluorescence intensity (a.u.).
